{"source": "the supplement of paper PMC12067093", "about": "“Discovery and optimisation of a covalent ligand for TRIM25 and its application to targeted protein ubiquitination” (Chemical Science, 2025)", "note": "This is one part of the list.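 Note: competitive profiling in live THP-1 cells: cysteine peptides tagged with an iodoacetamide desthiobiotin (IA-DTB) probe, intensity after compound treatment relative to DMSO-treated cells.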", "data": [{"compound": "Cc1cc(ccc1-c1ccccc1)C(=O)N1CCCN(CC1)C(=O)CCl [compound 10]", "test": "probe-labelled cysteine peptide fold change vs DMSO (competition) (log2 fold change); higher = less target engagement (more negative = stronger competition)", "conditions": "10 µM; THP-1; incubation time: 4 h", "values": [{"target": "CSTF2_P33240_62_GYGFCEYQDQETALSAMR (UniProt P33240)", "probe-labelled cysteine peptide fold change": -0.421}, {"target": "CPSF4_O95639_110_ECPFLHIDPESK (UniProt O95639)", "probe-labelled cysteine peptide fold change": -0.0283}, {"target": "CPSF2_Q9P2I0_522_CISTTESIEIK (UniProt Q9P2I0)", "probe-labelled cysteine peptide fold change": -0.219}, {"target": "CPNE3_O75131_15_VALNVSCANLLDK (UniProt O75131)", "probe-labelled cysteine peptide fold change": 0.132}, {"target": "CORO1B_Q9BR76_192+195_LDSLHPDLIYNVSWNHNGSLFCSACK (UniProt Q9BR76)", "probe-labelled cysteine peptide fold change": 0.106}, {"target": "CTCF_P49711_439+442_FHCPHCDTVIAR (UniProt P49711)", "probe-labelled cysteine peptide fold change": 0.212}, {"target": "CRIP1_P50238_52_PYCNHPCYAAMFGPK (UniProt P50238)", "probe-labelled cysteine peptide fold change": 0.109}, {"target": "CRYBG3_Q68DQ2_2762_SLKPIDYVFEEPSISLFALEHCEGR (UniProt Q68DQ2)", "probe-labelled cysteine peptide fold change": 0.0989}, {"target": "CSDE1_O75534_191_CQGVVCAMK (UniProt O75534)", "probe-labelled cysteine peptide fold change": -0.246}, {"target": "CPT1A_P50416_608_SCTTESCDFVR (UniProt P50416)", "probe-labelled cysteine peptide fold change": 0.331}, {"target": "CSK_P41240_164_LSIDEEVYFENLMQLVEHYTSDADGLCTR (UniProt P41240)", "probe-labelled cysteine peptide fold change": -0.0333}, {"target": "CORO1A_P31146_40_VSQTTWDSGFCAVNPK (UniProt P31146)", "probe-labelled cysteine peptide fold change": -0.0511}, {"target": "CTNNBL1_Q8WYA6_370_VLDHAMIGPEGTDNCHK (UniProt Q8WYA6)", "probe-labelled cysteine peptide fold change": -0.00299}, {"target": "CTPS1_P17812_218_CSNPLDTSVK (UniProt P17812)", "probe-labelled cysteine peptide fold change": 0.165}, {"target": "CPNE2_Q96FN4_388+401_VSHEFAINFNPTNPFCSGVDGIAQAYSACLPHIR (UniProt Q96FN4)", "probe-labelled cysteine peptide fold change": 0.402}, {"target": "CPNE2_Q96FN4_265_DSVPLEFECINPK (UniProt Q96FN4)", "probe-labelled cysteine peptide fold change": -0.207}, {"target": "CRELD2_Q6UXH1_31_KPTPCHR (UniProt Q6UXH1)", "probe-labelled cysteine peptide fold change": -0.00492}, {"target": "CRYZL1_O95825_274_HDIITLLGVGGHWVTTEENLQLDPPDSHCLFLK (UniProt O95825)", "probe-labelled cysteine peptide fold change": 0.104}, {"target": "CPOX_P36551_281_QWWFGGGCDLTPTYLNQEDAVHFHR (UniProt P36551)", "probe-labelled cysteine peptide fold change": 0.151}, {"target": "CPNE1_Q99829_4+14_AHCVTLVQLSISCDHLIDK (UniProt Q99829)", "probe-labelled cysteine peptide fold change": -0.148}, {"target": "CPSF1_Q10570_1102_IELQEWEHVTCMK (UniProt Q10570)", "probe-labelled cysteine peptide fold change": 0.0314}, {"target": "CRACR2A_Q9BSW2-2_494_CSEEEEVSDQGVQGQIPEAPPLK (UniProt Q9BSW2)", "probe-labelled cysteine peptide fold change": -0.0427}, {"target": "CPVL_Q9H3G5_271_QCHECIEHIR (UniProt Q9H3G5)", "probe-labelled cysteine peptide fold change": 0.223}, {"target": "CORO1B_Q9BR76_41_VTWDSTFCAVNPK (UniProt Q9BR76)", "probe-labelled cysteine peptide fold change": -0.0689}, {"target": "CSK_P41240_290_SVLGGDCLLK (UniProt P41240)", "probe-labelled cysteine peptide fold change": 0.016}, {"target": "CSDE1_O75534_42_LLTSYGFIQCSER (UniProt O75534)", "probe-labelled cysteine peptide fold change": 0.0219}, {"target": "CTNND1_O60716_533_HIEWESVLTNTAGCLR (UniProt O60716)", "probe-labelled cysteine peptide fold change": -0.0774}, {"target": "CTNND1_O60716_394_SNAAAYLQHLCYR (UniProt O60716)", "probe-labelled cysteine peptide fold change": -0.137}, {"target": "CPOX_P36551_373_HCDDSFTPQEK (UniProt P36551)", "probe-labelled cysteine peptide fold change": -0.186}, {"target": "CPSF2_Q9P2I0_34_FLLDCGWDEHFSMDIIDSLRK (UniProt Q9P2I0)", "probe-labelled cysteine peptide fold change": 0.381}, {"target": "CORO2A_Q92828_474_TWLTNGFDVFECPPPK (UniProt Q92828)", "probe-labelled cysteine peptide fold change": 0.177}, {"target": "CPSF2_Q9P2I0_335_VVLASQPDLECGFSR (UniProt Q9P2I0)", "probe-labelled cysteine peptide fold change": 0.00772}, {"target": "CRIP2_P52943_57_PCYATLFGPK (UniProt P52943)", "probe-labelled cysteine peptide fold change": 0.019}, {"target": "CSDE1_O75534_464_EKEAEDGIIAYDDCGVK (UniProt O75534)", "probe-labelled cysteine peptide fold change": -0.315}, {"target": "CRBN_Q96SW2_205_CQIFPSKPVSR (UniProt Q96SW2)", "probe-labelled cysteine peptide fold change": 0.249}, {"target": "CSNK2B_P67870_109_YQQGDFGYCPR (UniProt P67870)", "probe-labelled cysteine peptide fold change": 0.117}, {"target": "CPS1_P31327_1256_GNDVLVIECNLR (UniProt P31327)", "probe-labelled cysteine peptide fold change": -0.11}, {"target": "CRELD2_Q6UXH1_288+294_EHGQCADVDECSLAEK (UniProt Q6UXH1)", "probe-labelled cysteine peptide fold change": -0.429}, {"target": "CPSF2_Q9P2I0_187_EIHLNGCSLEMLSRPSLLITDSFNATYVQPR (UniProt Q9P2I0)", "probe-labelled cysteine peptide fold change": 0.0467}, {"target": "CPSF1_Q10570_532_SIRPQVVTTFELPGCYDMWTVIAPVR (UniProt Q10570)", "probe-labelled cysteine peptide fold change": -0.0794}]}]}
